# According to PubChem BioAssay AID720551 (National Center for Advancing Translational Sciences (NCATS), 2013):
# Sequences of proteins named here, by UniProt entry; tags and fusion partners are left off.
# UniProt Q12809, whole entry, looked up: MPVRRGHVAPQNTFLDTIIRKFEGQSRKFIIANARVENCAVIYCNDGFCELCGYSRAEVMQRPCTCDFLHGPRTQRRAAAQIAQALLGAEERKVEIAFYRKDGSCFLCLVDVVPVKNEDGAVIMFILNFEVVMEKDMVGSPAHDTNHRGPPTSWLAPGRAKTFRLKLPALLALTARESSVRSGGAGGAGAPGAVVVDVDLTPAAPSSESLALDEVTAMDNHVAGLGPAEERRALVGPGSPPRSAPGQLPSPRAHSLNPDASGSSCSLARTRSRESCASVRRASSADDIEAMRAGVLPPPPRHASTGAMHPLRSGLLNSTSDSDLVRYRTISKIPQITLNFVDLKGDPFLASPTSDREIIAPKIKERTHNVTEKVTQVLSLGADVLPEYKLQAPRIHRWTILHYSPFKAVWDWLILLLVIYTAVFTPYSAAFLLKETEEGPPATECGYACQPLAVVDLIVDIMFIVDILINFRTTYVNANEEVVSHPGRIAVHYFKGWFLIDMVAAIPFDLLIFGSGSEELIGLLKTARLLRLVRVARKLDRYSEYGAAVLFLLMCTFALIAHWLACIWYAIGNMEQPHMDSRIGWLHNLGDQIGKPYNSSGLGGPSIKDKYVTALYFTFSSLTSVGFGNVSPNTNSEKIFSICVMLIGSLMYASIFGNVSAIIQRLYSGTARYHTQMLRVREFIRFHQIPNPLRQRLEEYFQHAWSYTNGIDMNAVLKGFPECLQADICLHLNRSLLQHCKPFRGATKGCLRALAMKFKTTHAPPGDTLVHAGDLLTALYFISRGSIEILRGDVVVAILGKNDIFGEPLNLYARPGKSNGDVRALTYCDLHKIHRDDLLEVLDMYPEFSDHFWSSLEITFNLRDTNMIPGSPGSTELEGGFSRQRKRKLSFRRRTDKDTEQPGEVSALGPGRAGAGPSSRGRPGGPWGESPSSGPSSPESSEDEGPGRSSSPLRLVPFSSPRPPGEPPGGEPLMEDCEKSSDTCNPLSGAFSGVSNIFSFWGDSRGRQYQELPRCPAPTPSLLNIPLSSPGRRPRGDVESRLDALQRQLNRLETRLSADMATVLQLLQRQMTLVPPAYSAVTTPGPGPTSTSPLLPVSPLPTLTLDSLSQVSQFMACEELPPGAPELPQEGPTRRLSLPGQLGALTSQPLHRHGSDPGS
# The whole screen tested about 340,000 compounds, of which about 1,300 (0.38%) were called active. Inconclusive results, whose numbers are uncertain, are shown with a selection of clear calls.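 Rule for the calls: active = maximum activity change below -70%; inconclusive = maximum activity change between -70% and -50%; inactive = maximum activity change above -50%.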
# Biological target: Voltage-gated inwardly rectifying potassium channel KCNH2 (Homo sapiens) (UniProt Q12809)
# Assay: qHTS for Inhibitors of KCHN2 3.1: Wildtype qHTS
# Conditions: U2OS, BacMam KCNH2, thallium flux FluxOr; at 1.84 µM, stronger effect = lower value
# How it was run: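 U2OS cells were transduced with wild-type KCNH2 virus (2.03 x 10^8 / mL) for 4 h at room temperature, then cultured overnight at 37 C. Thallium flux was read with FluxOr dye. Rate constants were normalized to DMSO controls.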
# % is set by controls: 0 for no effect and ±100 for the full control effect.
row,Structure (SMILES),activity change
1,COc1ccc(C(CNC(=O)c2ccc(S(=O)(=O)N3CC(C)CC(C)C3)cc2)N(C)C)cc1 (stereo not given),active: -82.5%
2,Cn1nc(C(=O)Nc2cccc(C(F)(F)F)c2)c2ccccc2c1=O,inactive: 1.55%
3,Cc1cccc(-c2cc3nc4c(c(NCc5ccco5)n3n2)CCCC4)c1,inconclusive: -69.5%
4,Cc1cc(C)c(S(C)(=O)=O)c(N(C)NC(=O)c2c(F)cccc2F)n1,inconclusive: -67.3%
5,COc1cccc(C=NNC(=S)NN=Cc2cccc(OC)c2OC)c1OC,inactive: -0.159%
6,CCC(=O)Nc1cccc(NC(=O)c2ccc(C)c([N+](=O)[O-])c2)c1,inactive: -14.4%
7,COc1ccc(OC)c(NC(=O)C(=O)NNC(=O)COc2ccc(Br)cc2C)c1,inconclusive: -52.5%
8,CCn1cc(C(=O)OCC(=O)Nc2cccc(S(=O)(=O)N3CCOCC3)c2)c(=O)c2ccc(C)nc21,inconclusive: -50.2%
9,CC(C)(C)c1cc(CP(=O)(c2ccccc2)c2ccccc2)cc(C(C)(C)C)c1O,inconclusive: -58.6%
10,Nc1nc(Br)c2c(F)cccc2c1-c1ccc(Cl)cc1,inactive: 4.08%
11,COC(=O)c1ccc(/C=N/Nc2nc(C)c(C)s2)cc1,inconclusive: -58.8%
12,CN(C)Cc1c(O)ccc2ccccc12,inconclusive: -63.7%
13,COc1ccc2c3n(nc2c1)CCN=C3c1ccc(C)cc1,inconclusive: -57%
14,O=c1oc2cc(O)ccc2cc1-c1nc2c(s1)CCc1ccccc1-2,active: -157%
15,O=C1NC[C@H](Cc2ccccc2)N(CC2CCN(CCCC3CCCC3)CC2)C1=O,active: -130%
16,OCCC1CN(CC#Cc2ccccc2)CCN1C1CCCC1 (stereo not given),inactive: 12%
17,CCOC(=O)C1(CCOc2ccccc2)CCN(Cc2cccc(OC)c2)CC1,active: -95.5%
18,Brc1ccc2c(c1)OCCOCCOc1cc(Br)ccc1OCCOCCOCCO2,active: -87.7%
19,Cc1cc(OCC(=O)N2CCN(c3ccccn3)CC2)c(C)cc1Br,inactive: 3.38%
20,CN1CCN(c2ccc(Cl)cc2NC(=O)/C=C/c2cccc(F)c2)CC1,inconclusive: -64%
21,O=C1c2ccccc2NC(c2ccc(Br)s2)N1O (stereo not given),inactive: -6.33%
22,O=C(NCCN1CCN(Cc2ccc([N+](=O)[O-])cc2)CC1)C(=O)Nc1ccccc1,inconclusive: -65.5%

# An excerpt from further up, as a working copy:
row,Structure (SMILES),activity change
12,CN(C)Cc1c(O)ccc2ccccc12,inconclusive: -63.7%
13,COc1ccc2c3n(nc2c1)CCN=C3c1ccc(C)cc1,inconclusive: -57%

# Going on with the list:

row,Structure (SMILES),activity change
1,CCC(CC)C(=O)c1c[nH]c(C(=O)N2CCN(c3ccc(OC)cc3)CC2)c1,inactive: 3.85%
2,Cn1c(N2CCN(C(=O)Nc3ccc(C(F)(F)F)cc3)CC2)nc2ccccc21,active: -82.3%
3,O=C(COC(=O)CSc1ccc([N+](=O)[O-])cc1)NCCc1ccccc1,inconclusive: -50.1%
4,CCCCOC(=O)C(C#N)c1nc2ccccc2nc1N1CCN(Cc2ccc3c(c2)OCO3)CC1 (stereo not given),inconclusive: -53.4%
5,CCNc1nc(N2CCCC2)nc(N2CCCC2)n1,inconclusive: -50.7%
6,COc1cc(C2C(C#N)=C(N)Oc3cc(C)n(CCc4ccccc4)c(=O)c32)cc2c1OCO2 (stereo not given),inactive: 5.52%
7,Cc1ccc(/C=C2\CCC3=C2OC(N)=C(C#N)C3c2ccc(C)cc2)cc1 (stereo not given),inconclusive: -66.7%
8,CC(NC(=O)/C=C/c1ccco1)c1nc2ccccc2n1Cc1cccc(Cl)c1 (stereo not given),inconclusive: -58.1%
9,CCN(CCCC(=O)c1ccc(F)cc1)CCc1ccccc1,inconclusive: -63.1%
10,COc1ccc(CN2CCC(C(=O)c3cccc(Cl)c3)CC2)cc1,inconclusive: -53.5%
11,O=C(CSc1nnc2ccc(-c3ccc(Br)cc3)nn12)NCC1CCCO1 (stereo not given),inactive: -2.79%
12,COc1ccccc1COCC(O)CNCCc1ccc(C(F)(F)F)cc1 (stereo not given),inconclusive: -56.8%
13,S=c1nc(SCc2ccccc2)[nH]c2ccccc12,inconclusive: -69.3%
14,CC1CCC(C(=O)NC(C(=O)N2CCN(c3ccccn3)CC2)C(C)C)CC1 (stereo not given),inconclusive: -62.6%
15,NC(=O)c1cc([N+](=O)[O-])ccc1N1CCCCC1,inconclusive: -54.2%
16,O=C(N/N=C/c1cc(Cl)ccc1O)c1cccnc1,inactive: -9.39%
17,O=C(NC(=S)Nc1cccc([N+](=O)[O-])c1)C1CCCCC1,inconclusive: -60.6%
18,Cc1oc(-c2ccc(Cl)cc2)nc1CN1CCC(C(=O)N2CCc3ccccc3C2)CC1,inconclusive: -60.3%
19,CCOc1ccc(CCNC(=O)CCCn2c(=O)c3cccn3c3cccnc32)cc1OCC,inactive: -7.98%
20,N=c1c(C(=O)NCc2ccc(F)cc2)cc2c(=O)n3ccccc3nc2n1CC1CCCO1 (stereo not given),active: -122%
21,COc1cc(OC)cc(-c2c(C#Cc3ccsc3)c3cc(-c4ccc5cc[nH]c5c4)ccc3n2C)c1,inconclusive: -61.3%
22,Cn1cc(/C=N/n2cnc3scc(-c4ccc(Cl)cc4)c3c2=O)c2ccccc21,inactive: -7.69%

row,Structure (SMILES),activity change
1,CCCc1c(C(=O)N/N=C/c2ccccc2OCc2ccc(F)cc2)nnn1-c1nonc1N,inconclusive: -51.3%
2,CCCCN1C[C@H](CSC)[C@@H](CC(=O)Nc2ccc(Br)cc2)C1=O,inconclusive: -51.8%
3,CN(c1ccc(OCC(=O)OCC(=O)Nc2ccccc2)cc1)S(=O)(=O)c1ccc(F)cc1,inconclusive: -66.5%
4,CC(C(=O)Nc1ccc([N+](=O)[O-])cc1)N1CCN(C/C=C/c2ccccc2)CC1 (stereo not given),active: -194%
5,COc1ccc(S(=O)(=O)Nc2cc([N+](=O)[O-])ccc2OC)cc1,inactive: -2.46%
6,CCC1CCCCN1CCCNC(=O)c1ccc(/C=C2/Sc3ccccc3NC2=O)cc1 (stereo not given),inconclusive: -62.2%
7,O=C(NCC(=O)N(c1cccnc1)C(C(=O)NC1CCCCC1)c1ccccc1F)c1ccco1 (stereo not given),active: -149%
8,COc1ccc(SC[C@H](Cc2ccccc2)N2CCN(CCc3ccccc3)CCC2=O)cc1,active: -108%
9,COC(=O)c1cc(S(=O)(=O)N2CCN(c3cccc(C)c3C)CC2)c[nH]1,inactive: -5.98%
10,Cc1ccc(C(=O)Nc2c(C)cc(C)c3cccnc23)cc1,inconclusive: -50.5%
11,CSc1nc2c(c(=O)[nH]1)C(c1ccccc1Cl)CC(=O)N2 (stereo not given),inactive: -5.45%
12,O=C(Nc1nc(=O)c2ccccc2s1)c1ccc(Cl)cc1,inactive: -25.2%
13,CCOC(=O)C1(CCOc2ccccc2)CCN(Cc2cccc(OC)c2O)CC1,active: -102%
14,COc1ccc(N2CCN(C(=O)c3ccc(-c4ccccc4)cc3)CC2)cc1,inconclusive: -62.3%
15,COc1ccc(CN2CCN(Cc3cccc(Oc4ccccc4)c3)CC2)c(OC)c1OC,inconclusive: -57.8%
16,O=S(=O)(O)c1cc(O)c(N=Nc2ccc(O)cc2O)c2ccccc12,inactive: -4.94%
17,CC1CCC(N2CCN(c3ccc([N+](=O)[O-])cc3)CC2)CC1 (stereo not given),inconclusive: -69.7%
18,CC(=NNc1nc2ccccc2o1)c1cc2ccccc2cn1,inconclusive: -54.7%
19,Cc1ccc(-n2cc(CN3CCC(CO)(Cc4cccc(C(F)(F)F)c4)CC3)cn2)cc1,active: -84.2%
20,CC1=NN(c2ccc(C(=O)OC(C)C)cc2)C(=O)/C1=C\C=C\c1ccco1,active: -202%
21,COc1ccc(C(=O)N2CCN(S(=O)(=O)c3ccc(C)cc3)CC2)cc1S(=O)(=O)N1CCOCC1,inconclusive: -52.3%
22,COc1ccccc1OC(C)C(=O)Nc1ccccc1C(=O)NCC1CCCO1 (stereo not given),inactive: -0.965%

# Entries listed so far with four or more nitrogen atoms (16):
row,Structure (SMILES),activity change
3,Cc1cccc(-c2cc3nc4c(c(NCc5ccco5)n3n2)CCCC4)c1,inconclusive: -69.5%
5,COc1cccc(C=NNC(=S)NN=Cc2cccc(OC)c2OC)c1OC,inactive: -0.159%
8,CCn1cc(C(=O)OCC(=O)Nc2cccc(S(=O)(=O)N3CCOCC3)c2)c(=O)c2ccc(C)nc21,inconclusive: -50.2%
22,O=C(NCCN1CCN(Cc2ccc([N+](=O)[O-])cc2)CC1)C(=O)Nc1ccccc1,inconclusive: -65.5%
2,Cn1c(N2CCN(C(=O)Nc3ccc(C(F)(F)F)cc3)CC2)nc2ccccc21,active: -82.3%
4,CCCCOC(=O)C(C#N)c1nc2ccccc2nc1N1CCN(Cc2ccc3c(c2)OCO3)CC1 (stereo not given),inconclusive: -53.4%
5,CCNc1nc(N2CCCC2)nc(N2CCCC2)n1,inconclusive: -50.7%
11,O=C(CSc1nnc2ccc(-c3ccc(Br)cc3)nn12)NCC1CCCO1 (stereo not given),inactive: -2.79%
14,CC1CCC(C(=O)NC(C(=O)N2CCN(c3ccccn3)CC2)C(C)C)CC1 (stereo not given),inconclusive: -62.6%
19,CCOc1ccc(CCNC(=O)CCCn2c(=O)c3cccn3c3cccnc32)cc1OCC,inactive: -7.98%
20,N=c1c(C(=O)NCc2ccc(F)cc2)cc2c(=O)n3ccccc3nc2n1CC1CCCO1 (stereo not given),active: -122%
22,Cn1cc(/C=N/n2cnc3scc(-c4ccc(Cl)cc4)c3c2=O)c2ccccc21,inactive: -7.69%
1,CCCc1c(C(=O)N/N=C/c2ccccc2OCc2ccc(F)cc2)nnn1-c1nonc1N,inconclusive: -51.3%
4,CC(C(=O)Nc1ccc([N+](=O)[O-])cc1)N1CCN(C/C=C/c2ccccc2)CC1 (stereo not given),active: -194%
7,O=C(NCC(=O)N(c1cccnc1)C(C(=O)NC1CCCCC1)c1ccccc1F)c1ccco1 (stereo not given),active: -149%
18,CC(=NNc1nc2ccccc2o1)c1cc2ccccc2cn1,inconclusive: -54.7%

# Continuation.

row,Structure (SMILES),activity change
1,O=C(c1ccco1)N(Cc1ccc2c(c1)OCO2)Cc1cc2cc3c(cc2[nH]c1=O)OCO3,inconclusive: -63.5%
2,CSC(=Nc1ccccc1)N=C(SCc1ccccc1)N(C)C,inconclusive: -68.1%
3,O=C(COc1cccc(OC(F)F)c1)Nc1ccc(SC(F)F)cc1,inconclusive: -59.1%
4,Cc1ccc(OCC(=O)Nc2ccc(N3CCN(C(=O)c4ccco4)CC3)cc2)cc1C,inactive: 7.11%
5,CCCN(CC(=O)Nc1ccc(F)c(F)c1F)C(=O)c1cc([N+](=O)[O-])ccc1N1CCOCC1,inconclusive: -54.2%
6,Cc1ccc(NC(=O)C(=O)NCCN2CCN(Cc3ccc([N+](=O)[O-])cc3)CC2)cc1,active: -82.2%
7,O=C(COC(=O)c1cc(Cl)cc(Cl)c1)NCCN1C(=O)CSC1=O,inconclusive: -66.2%
8,COc1ccc(CC(=O)N2CCC(Nc3nc4ccccc4n3Cc3ccc(F)cc3)CC2)cc1,inconclusive: -54.9%
9,COc1ccc(CCNC(=O)c2ccc3c(SCC(=O)O)c4c(nc3c2)CCCC4)cc1OC,inconclusive: -68.4%
10,Cc1sc2ccc3sccc3c2[n+]1C,inconclusive: -53.6%
11,CCCCCCCNC(=O)C1(CC2CC(c3cccc(Br)c3)=NO2)CCN(C(=O)c2ccccc2)CC1 (stereo not given),active: -70.5%
12,CC(=O)NC(=S)Nc1ccc(N2CCOCC2)c(S(=O)(=O)Nc2cc(Cl)ccc2Cl)c1,inconclusive: -68%
13,O=C(NCCc1nc2ccccc2[nH]1)/C(=C/c1ccc2c(c1)OCO2)NC(=O)c1ccccc1Cl,inconclusive: -57.5%
14,CC(C)(C)Cc1nnc(NC(=O)c2ccco2)s1,inactive: 33.7%
15,COCCSc1ncnc2c1oc1nc3c(cc12)COC(C)(C)C3,inactive: -1.71%
16,CC1(C)CC(=O)C(N=Nc2ccc(F)cc2)=C(O)C1,inconclusive: -61.6%
17,Cc1ccc(Oc2nc3ccccc3n3cccc23)cc1,inactive: -19.2%
18,N#Cc1ccc(OCC(O)CN2CCN(c3ncc(C(F)(F)F)cc3Cl)CC2)cc1 (stereo not given),inconclusive: -63.7%
19,CC1CCN(CCCNC(=O)CCc2nnc3n(CCc4ccccc4)c(=O)c4ccccc4n23)CC1,inconclusive: -53%
